In publication doi:10.1101/794511:
No constants are given. Whether binding was seen depends on the method and setting. For some assays here: In cells and extracts the contact can be indirect. Some entries that bind do so weakly or less than the wild type.

The chains behind the UniProt entries cited, without tags or fusion partners.
UniProt P31316: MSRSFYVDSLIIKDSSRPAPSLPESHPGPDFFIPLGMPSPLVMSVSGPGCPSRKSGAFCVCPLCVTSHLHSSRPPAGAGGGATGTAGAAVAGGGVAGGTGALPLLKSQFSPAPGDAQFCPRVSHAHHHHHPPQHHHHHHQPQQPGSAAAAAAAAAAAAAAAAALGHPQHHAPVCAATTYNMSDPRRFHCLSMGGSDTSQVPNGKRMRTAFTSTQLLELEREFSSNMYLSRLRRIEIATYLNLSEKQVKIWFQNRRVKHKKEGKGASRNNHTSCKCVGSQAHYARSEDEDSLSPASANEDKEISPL

How the values were obtained:
[1] = target: T1, Ascl1, endogenous in the E12.5 mouse telencephalon (mouse (endogenous in E12.5 telencephalon)) (UniProt Q02067); assay: co-IP
T1 sequence: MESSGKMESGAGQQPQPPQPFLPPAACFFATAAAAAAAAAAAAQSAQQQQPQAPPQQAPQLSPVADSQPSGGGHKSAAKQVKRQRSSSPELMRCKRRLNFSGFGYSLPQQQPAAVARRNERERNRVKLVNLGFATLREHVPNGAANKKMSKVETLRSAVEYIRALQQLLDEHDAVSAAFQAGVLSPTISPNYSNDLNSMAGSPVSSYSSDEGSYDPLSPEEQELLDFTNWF

[2] = target: T2, Ascl1, yeast two-hybrid prey in pGADT7 (mouse) (UniProt Q02067); assay: yeast three-hybrid
T2 sequence: T1 sequence

Row | Substance | binding [1] | binding [2]
1 | Gsx2, endogenous in the E12.5 mouse telencephalon (from UniProt P31316 1-305) | binds | 
2 | Gsx2, interfering protein of the yeast three-hybrid assay (pBRIDGE MCS2) (from UniProt P31316 1-305) |  | binds
